# Test results as given in PubChem BioAssay AID2685 (National Center for Advancing Translational Sciences (NCATS), 2010).
# The other results are listed elsewhere or left out. Shown are side measurements of this screen, not its main read-out; they come without a call. Compounds called inactive in the main read-out are mostly missing here. The note in brackets gives the kind of curve behind each potency; many fits are weak.
# Test: qHTS Assay for Lipid Storage Modulators in Drosophila S3 Cells;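 as to cell number change: cells counted by Cell Tracker Red CMTPX staining in the red channel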
# Settings: BODIPY lipid droplet fluorescence, 18-24 h; for cell number change: measured here: cell count max response, cells fed with added oleic acid
# Procedure, shortened: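 Laser-scanning cytometry quantifies lipid droplet accumulation (500–530 nm total intensity; droplet/cell object ratio) in oleic acid-fed (400 uM added) Drosophila S3 cells treated with a concentration series. 20 uM Triacsin C defined 100% inhibition.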
# [1] = measured here: cell number channel AC50, cells fed with added oleic acid
# [2] = measured here: lipid fluorescence (Fed channel) AC50, cells fed with added oleic acid
compound,measurement,setting,value
CC(=O)Nc1nc2ccc(NC(=O)c3ccco3)cc2s1,cell number change,,90.2%
same,AC50,[1],"4.61 µM [rising, partial curve]"
same,AC50,[2],"6.51 µM [rising, single point]"
COc1ccc([C@@H]2C[C@H](c3ccccc3)Oc3cc(C)cc(C)c32)cc1,cell number change,,0.849%
same,AC50,[2],"16.4 µM [rising, single point]"
CCOc1ccc(N2C(=O)CC(N3CCN(c4ccc([N+](=O)[O-])cc4)CC3)C2=O)cc1 (stereo unspecified),cell number change,,-12.2%
same,AC50,[2],"14.6 µM [falling, partial curve, poor fit]"
Clc1cccc(NCc2nnc(SCc3ccc(Cl)cc3Cl)o2)c1,cell number change,,-36.6%
same,AC50,[1],"29.1 µM [falling, single point]"
same,AC50,[2],"29.1 µM [falling, single point]"
COc1ccccc1C(CNC(=O)CSc1ccc2ccccc2c1)N(C)C (stereo unspecified),cell number change,,23.7%
same,AC50,[2],"3.66 µM [rising, full curve]"
CCCC(=O)Nc1ccc(OCC(=O)OC)cc1,cell number change,,-204%
same,AC50,[1],"18.4 µM [falling, single point]"
c1cncc(-c2nc(Oc3ccc(-c4nnco4)cc3)c3c4c(sc3n2)CCCC4)c1,cell number change,,2.29%
same,AC50,[2],"3.66 µM [rising, single point]"
O=C(c1ccc(Sc2ccccc2)c([N+](=O)[O-])c1)N1CCOCC1,cell number change,,22.2%
same,AC50,[2],"1.84 µM [rising, partial curve, poor fit]"
COc1cccc(COCCN2CCN(S(=O)(=O)c3ccc(C)cc3)CCC2=O)c1,AC50,[2],"18.4 µM [rising, single point]"
COc1ccc(NC(=O)CN2CCCCCC2)cc1OC,cell number change,,12.1%
same,AC50,[2],"20.6 µM [rising, single point]"
CCOC(=O)c1c(NC(=O)CSc2nnnn2C)sc(C(=O)N(C)C)c1C,cell number change,,51.4%
same,AC50,[1],"29.1 µM [rising, single point]"
same,AC50,[2],"29.1 µM [rising, single point]"
COc1ccc(C(=O)NCCS(=O)(=O)N2CCN(C(=O)c3ccco3)CC2)cc1,cell number change,,0.962%
same,AC50,[2],"2.59 µM [rising, full curve, poor fit]"
COc1ccc2c3n([n+]([O-])c2c1)CCN=C3c1ccc(Cl)cc1,cell number change,,17.6%
same,AC50,[1],"0.231 µM [falling, single point]"
same,AC50,[2],"0.517 µM [falling, partial curve]"
COc1cc(C2CC(=O)c3cnc(NC(=O)c4ccco4)nc3C2)cc(OC)c1OC (stereo unspecified),cell number change,,12.8%
Cc1cc[n+](CC(=O)c2ccc(NC(=O)c3ccccc3)cc2)cc1,AC50,[2],"0.731 µM [falling, single point]"
CCc1nnc(NC(=O)c2ccc(S(=O)(=O)N(CCOC)CCOC)cc2)s1,cell number change,,-14.4%
same,AC50,[1],"0.92 µM [rising, full curve, poor fit]"
same,AC50,[2],"20.6 µM [rising, partial curve, poor fit]"
O=C(NCc1ccccc1F)c1ccc(S(=O)(=O)N2CCCCCC2)cc1,AC50,[2],"1.16 µM [falling, partial curve, poor fit]"
O=C(CC1(O)C(=O)Nc2cc(Cl)cc(Cl)c21)c1ccncc1 (stereo unspecified),cell number change,,-19.1%
same,AC50,[2],"29.1 µM [falling, single point]"
Cc1cc(C)n(-c2nc3ccccc3c(=O)n2OCC(=O)OCc2ccccc2)n1,cell number change,,0.323%
same,AC50,[2],"4.11 µM [rising, single point]"
CCOC(=O)N1CCN(c2cc(=O)n(-c3ccccc3Cl)c(=O)[nH]2)CC1,cell number change,,-31.5%
same,AC50,[1],"0.206 µM [falling, full curve]"
same,AC50,[2],"1.46 µM [falling, full curve]"
COc1ccc(S(=O)(=O)N2CCC(C(=O)NCc3cccnc3)CC2)cc1OC,cell number change,,3.48%
same,AC50,[2],"0.58 µM [rising, single point]"
CC1CN(/C(=N\S(=O)(=O)c2ccccc2)c2ccccc2)CC(C)O1 (stereo unspecified),cell number change,,-2.69%
same,AC50,[2],"1.84 µM [rising, partial curve]"
COc1ccc(C(=O)NC(C)(C)C)cc1S(=O)(=O)N1CCCC1,cell number change,,-108%
same,AC50,[1],"20.6 µM [falling, partial curve]"
Cc1ccc(N=C2NC(=O)S/C2=C\c2ccco2)cc1,cell number change,,-21.5%
same,AC50,[2],"29.1 µM [falling, single point]"
CCc1cccc2c(=O)c(C(=O)N3CCCCCC3)c[nH]c12,cell number change,,-133%
same,AC50,[1],"25.9 µM [falling, partial curve]"
same,AC50,[2],"0.82 µM [falling, full curve]"
CC(C)C(C(=O)Nc1nccs1)c1ccccc1 (stereo unspecified),cell number change,,-30.3%
same,AC50,[1],"29.1 µM [falling, single point]"
Nc1ccccc1C(=O)NNc1ncc(C(F)(F)F)cc1Cl,cell number change,,3.21%
O=C(Nc1ccc(F)cc1F)C1CCCN1S(=O)(=O)c1cccc2nsnc12 (stereo unspecified),cell number change,,67%
same,AC50,[1],"25.9 µM [rising, partial curve, poor fit]"
same,AC50,[2],"0.731 µM [rising, full curve]"
COc1ccc(OC)c(C(c2nnnn2Cc2ccccc2)N2CCC(C(N)=O)CC2)c1 (stereo unspecified),cell number change,,-12.1%
same,AC50,[2],"1.84 µM [rising, partial curve, poor fit]"
CCOC1(OCC)C(c2ccc(Cl)cc2)C(C#N)(C#N)C1(OCC)OCC (stereo unspecified),cell number change,,-45.9%
same,AC50,[1],"0.731 µM [falling, full curve]"
COc1ccc(N2CCN(C(=O)CNC(=O)c3ccccc3Cl)CC2)cc1,cell number change,,-15.3%
same,AC50,[2],"29.1 µM [falling, single point]"
COCc1nnc(NC(=O)c2ccco2)s1,cell number change,,0.195%
same,AC50,[2],"10.3 µM [falling, partial curve]"
COc1cccc(NC(=O)Nc2nc(SC)ns2)c1,cell number change,,-37.6%
same,AC50,[1],"11.6 µM [falling, partial curve]"
COC(=O)c1ccc(=O)n(-c2ccc(OC)cc2)c1,cell number change,,0.696%
same,AC50,[2],"2.31 µM [falling, full curve, poor fit]"
C=CCOc1c(Br)cc(/C=N/NC(=O)Cc2ccc(C(F)(F)F)cc2[N+](=O)[O-])cc1OC,cell number change,,-46%
same,AC50,[1],"13 µM [falling, partial curve]"
same,AC50,[2],"18.4 µM [falling, single point]"
CCOC(=O)c1nn(-c2ccc(Cl)cc2)cc1O,cell number change,,-6.72%
same,AC50,[1],"0.731 µM [falling, full curve]"

# Another view of part of the listing above.
compound	measurement	setting	value
COc1ccccc1C(CNC(=O)CSc1ccc2ccccc2c1)N(C)C (stereo unspecified)	cell number change		23.7%
COc1ccc2c3n([n+]([O-])c2c1)CCN=C3c1ccc(Cl)cc1	cell number change		17.6%
CC1CN(/C(=N\S(=O)(=O)c2ccccc2)c2ccccc2)CC(C)O1 (stereo unspecified)	cell number change		-2.69%
COc1ccc(C(=O)NC(C)(C)C)cc1S(=O)(=O)N1CCCC1	cell number change		-108%
Nc1ccccc1C(=O)NNc1ncc(C(F)(F)F)cc1Cl	cell number change		3.21%
COc1cccc(NC(=O)Nc2nc(SC)ns2)c1	cell number change		-37.6%
